In the assay the target is E3 ubiquitin ligase muscle ring finger protein 2 (MuRF2), His-tagged (UniProt Q9BYV6). The experiment in a line: co-IP; HEK293T co-transfected with His-MuRF2, HA-Ub and PPAR γ1 (wild type or mutant); MG132 20 µM for 6 h before harvest; 500 µg lysate protein precipitated with mouse anti-His antibody and protein A/G agarose at 4 °C; immunoblot with anti-PPAR γ1. For orientation: Immunoblotting shows a protein as a band on a membrane.

Sequences of proteins named here, by UniProt entry; tags and fusion partners are left off. Residues count along the entry.
UniProt Q9BYV6: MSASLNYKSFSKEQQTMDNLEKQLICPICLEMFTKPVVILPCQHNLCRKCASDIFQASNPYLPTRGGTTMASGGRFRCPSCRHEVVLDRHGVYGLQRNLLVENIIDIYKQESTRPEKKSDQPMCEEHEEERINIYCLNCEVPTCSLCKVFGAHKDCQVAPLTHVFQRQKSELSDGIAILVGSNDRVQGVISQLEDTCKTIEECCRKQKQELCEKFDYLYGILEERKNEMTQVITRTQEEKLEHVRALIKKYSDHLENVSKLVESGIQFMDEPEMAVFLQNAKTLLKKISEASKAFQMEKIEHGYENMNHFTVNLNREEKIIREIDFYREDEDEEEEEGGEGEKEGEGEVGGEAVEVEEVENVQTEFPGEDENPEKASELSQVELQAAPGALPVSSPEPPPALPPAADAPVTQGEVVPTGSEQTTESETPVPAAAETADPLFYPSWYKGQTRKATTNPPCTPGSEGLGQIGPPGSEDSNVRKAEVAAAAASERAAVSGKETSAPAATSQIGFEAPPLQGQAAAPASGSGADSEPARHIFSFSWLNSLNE
UniProt P37231, residues 29-505: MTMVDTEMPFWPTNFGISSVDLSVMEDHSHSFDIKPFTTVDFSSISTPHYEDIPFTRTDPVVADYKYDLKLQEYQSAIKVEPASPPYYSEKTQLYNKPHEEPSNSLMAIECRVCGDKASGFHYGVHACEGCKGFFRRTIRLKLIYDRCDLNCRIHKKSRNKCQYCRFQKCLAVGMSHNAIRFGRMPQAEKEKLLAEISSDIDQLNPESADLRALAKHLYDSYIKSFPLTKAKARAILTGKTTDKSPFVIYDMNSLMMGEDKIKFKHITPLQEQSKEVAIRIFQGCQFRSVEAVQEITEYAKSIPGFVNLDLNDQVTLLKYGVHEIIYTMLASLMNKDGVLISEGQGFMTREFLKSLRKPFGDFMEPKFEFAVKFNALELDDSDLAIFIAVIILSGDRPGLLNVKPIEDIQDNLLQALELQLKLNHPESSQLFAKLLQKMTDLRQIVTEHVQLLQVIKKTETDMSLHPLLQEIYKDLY

Results are given in words; binding and its absence hold for the method and conditions named. Binding seen in cells or lysates may run through a third protein. Some results given as binding are weak or reduced against the parent protein; the word gives no strength.

Regarding “Peroxisome proliferator-activated receptor gamma 1 (PPAR γ1) (from UniProt P37231-2 1-477)”, the binding entry was “binds”.

The record behind these values is PMC9898238.
